Data source: PubChem BioAssay AID504791 (Drosophila RNAi Screening Center, 2011)
The screen tested about 23,000 reagents; below is a random part of those that have a named target and a result. Of all reagents, 199 (0.86%) are marked active. 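Plate-scaled ratios behind the calls are not deposited; printed light signals are raw; many rows marked increased or decreased are still called inactive.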 Entries without a mark were called inactive. A plus sign joins genes that one reagent is predicted to hit. No sequences are given here. The record does not give: the direction of the score.

- Assay: 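Genes of the fly required for silencing by miRNA, siRNA or endo-siRNA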 (primary screen)
- System: Drosophila S2-derived reporter cells
- Reagent: long dsRNA against Drosophila genes, about 150-250 ng dsRNA per well (siRNA assay); about 80-120 ng (miRNA assay)
- Time to read-out: about 5 days (siRNA assay); about 4 days (miRNA assay)
- Conditions: copper sulfate induction of reporters: 25 µM (siRNA assay); 200 mM stated (miRNA assay), 1-2 days before reading
- Detection: 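Dual luciferase assay: Renilla to firefly signal ratio in each well, scaled to the mean ratio of its plate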
- Units: stable assay Renilla, run 1 in luminescence; stable assay firefly, run 1 in luminescence
- Hit rule: 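a well was a first-pass pick when its plate-scaled ratio rose above 1.5 (siRNA assay) or 1.6 (miRNA assay), or dropped below 0.6; a gene counted only if two separate dsRNAs agreed on retest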

CG3955 (GeneID 36438) [DRSC06859] | stable assay Renilla, run 1: 8238; stable assay firefly, run 1: 5.59e5
clos (GeneID 5740204) [DRSC06240] | stable assay Renilla, run 1: 6615; stable assay firefly, run 1: 4.00e5
clos (GeneID 5740204) [DRSC06241] | stable assay Renilla, run 1: 5904; stable assay firefly, run 1: 3.89e5
clos (GeneID 5740204) [DRSC06778] | stable assay Renilla, run 1: 6383; stable assay firefly, run 1: 3.10e5
clos (GeneID 5740204) [DRSC21857] | stable assay Renilla, run 1: 9780; stable assay firefly, run 1: 7.34e5
clos (GeneID 5740204) [DRSC22942] | stable assay Renilla, run 1: 4151; stable assay firefly, run 1: 3.62e5
CG2938 (GeneID 31347) [DRSC18243] | stable assay Renilla, run 1: 8174; stable assay firefly, run 1: 5.83e5
Bcat (GeneID 32297) [DRSC19756] | stable assay Renilla, run 1: 4731; stable assay firefly, run 1: 3.51e5
Sap30 (GeneID 32664) [DRSC19916] | stable assay Renilla, run 1: 4727; stable assay firefly, run 1: 3.62e5
Ube4A (GeneID 33932) [DRSC02004] | miRNA reporter change: reporter ratio lowered past the hit cutoff; stable assay Renilla, run 1: 3.79e5; stable assay firefly, run 1: 6.74e5
CG4988 (GeneID 34586) [DRSC02800] | stable assay Renilla, run 1: 7675; stable assay firefly, run 1: 4.05e5
CG32204 (GeneID 317913) [DRSC09574] | stable assay Renilla, run 1: 4507; stable assay firefly, run 1: 4.05e5
CG3430 (GeneID 33976) [DRSC02713] | stable assay Renilla, run 1: 9739; stable assay firefly, run 1: 1.88e5
CG13123 (GeneID 34303) [DRSC02219] | stable assay Renilla, run 1: 8482; stable assay firefly, run 1: 5.25e5
Mcm6 (GeneID 31603) [DRSC18680] | stable assay Renilla, run 1: 8118; stable assay firefly, run 1: 5.50e5
Ttc19 (GeneID 35172) [DRSC02474] | stable assay Renilla, run 1: 7635; stable assay firefly, run 1: 4.69e5
Phk-3 (GeneID 37997) [DRSC04547] | stable assay Renilla, run 1: 6350; stable assay firefly, run 1: 5.12e5
Stacl + CG8179 (retired record) [DRSC07091] | stable siRNA reporter change: reporter ratio raised past the hit cutoff; stable assay Renilla, run 1: 3271; stable assay firefly, run 1: 2.55e5
Stacl + CG8179 (retired record) [DRSC23019] | stable assay Renilla, run 1: 4140; stable assay firefly, run 1: 3.23e5

Quoted from above (3 entries):
Mcm6 (GeneID 31603) [DRSC18680] | stable assay Renilla, run 1: 8118; stable assay firefly, run 1: 5.50e5
Ttc19 (GeneID 35172) [DRSC02474] | stable assay Renilla, run 1: 7635; stable assay firefly, run 1: 4.69e5
Phk-3 (GeneID 37997) [DRSC04547] | stable assay Renilla, run 1: 6350; stable assay firefly, run 1: 5.12e5
